{"source": "paper PMC9686928", "about": "“10-mer and 9-mer WALK Peptides with Both Antibacterial and Anti-Inflammatory Activities” (Antibiotics, 2022)", "note": "Where no end group is shown, it is not given here."}
{"test_system": "human red blood cells", "details": "TI’ = MHC/GM"}
{"substance": "LKKWLKWLLK-NH2 [WALK244.07]", "pseudo-therapeutic index (TI’)": "> 10"}
{"substance": "KLLKWLKKWL-NH2 [WALK244.05]", "pseudo-therapeutic index (TI’)": "> 10"}
{"substance": "KWLLKWLKKL-NH2 [WALK244.02]", "pseudo-therapeutic index (TI’)": "> 10"}
{"substance": "LLKWLKKWLK-NH2 [WALK244.04]", "pseudo-therapeutic index (TI’)": "> 10"}
